For at least one compound, name, drawing or mass did not settle the structure. Some results were stated once for a whole list of compounds, not compound by compound.
Test system: PrP^Sc formation in transiently transfected ScN2a cells
Format: cell-based, mouse

## OC[C@H]1O[C@@H](n2cnc3cncnc32)[C@H](O)[C@@H]1O [Compound 18, Purine Riboside]
  concentration effective at inhibiting PrP^Sc formation: 20 to 40 µM

## CN[C@@H]1[C@@H](O)[C@@H](O[C@@H]2[C@@H](O)[C@H](O[C@H]3O[C@H]([C@@H](C)O)[C@@H](O)[C@H](O)[C@H]3N)[C@@H](N)C[C@H]2N)OC[C@]1(C)O [Compound 19, Geneticin, reference compound]
  Results (effect on transiently transfected ScN2a cells; inhibitory effect on PrP^Sc formation): Negative

## CC(=O)O[C@@H]1[C@H](OC(C)=O)[C@@H](CO)O[C@H]1n1cnc2c(N)ncnc21 [Compound 32, 2′3′-Di-O-Acetyladenosine]
  concentration effective at inhibiting PrP^Sc formation: 20 to 40 µM
